This is an account of results in PubChem BioAssay AID2685 (National Center for Advancing Translational Sciences (NCATS), 2010).

In general, AC50 refers to the concentration at which the activity in the assay is half-maximal. Read a low AC50 as activity at low concentration.

This test in a line: qHTS Assay for Lipid Storage Modulators in Drosophila S3 Cells.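 For cell number change: cells counted by Cell Tracker Red CMTPX staining in the red channel.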 The following applies: BODIPY lipid droplet fluorescence, 18-24 h; for cell number change: measured here: cell count max response, cells fed with added oleic acid. Summed up: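 Laser-scanning cytometry quantifies lipid droplet accumulation (500–530 nm total intensity; droplet/cell object ratio) in oleic acid-fed (400 uM added) Drosophila S3 cells treated with a concentration series. 20 uM Triacsin C defined 100% inhibition.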
Background: In qHTS, concentration-response curves come from the screen itself.

The mark [1] stands for this setting: measured here: cell number channel AC50, cells fed with added oleic acid.
Setting [2] is: measured here: lipid fluorescence (Fed channel) AC50, cells fed with added oleic acid.

The list shows a part of the results. Further columns of the screen follow, without active or inactive calls. Most of these compounds were active or inconclusive in the main read-out, so they are no random draw. Words in brackets tell the shape of the fitted curve; partial curves, single points and poor fits give uncertain potencies.

Turning to `Cc1cccc(NC(=O)/C(C#N)=C\c2cc(C)n(-c3ccc(C(=O)O)cc3)c2C)c1`, the cell number change was -22.2%. In addition, under setting [1], the AC50 is 5.8 µM [falling, partial curve].

For the compound `CCCOC(=O)c1ccc(NC(=O)Oc2ccccc2)cc1`, the cell number change is -20.6%. Also, under setting [2], the AC50 was 16.4 µM [falling, single point].

On to `Cc1cc(C)cc(OCc2nnc(SCC(=O)OC3CCCCC3)o2)c1`, for which the cell number change was -14%. Further, the AC50 under setting [2] is 3.26 µM [falling, full curve, poor fit].

`Cc1c(NC(=O)COC(=O)C(c2ccc(Cl)cc2)C(C)C)c(=O)n(-c2ccccc2)n1C` (stereo unspecified): the half-maximal activity concentration (AC50) runs as follows: under setting [1], 1.16 µM [rising, partial curve]; under setting [2], 1.46 µM [rising, partial curve].

In the case of `Cc1nc(NC(=O)/C=C/c2ccccc2)sc1C(=O)N1CCCCC1`, the cell number change was determined as 36.4%. Besides, the AC50 under setting [1] was 8.2 µM [rising, partial curve, poor fit]. Also, under setting [2], the concentration at half-maximal activity (AC50) was 32.6 µM [rising, partial curve, poor fit].

As for `COc1ccc(CCNC(=O)Cn2nnc(C(=O)Nc3cccc(C)c3C)c2N)cc1OC`, under setting [2], the AC50 is 29.1 µM [rising, single point].

On to `CCC1CCCCN1S(=O)(=O)c1c(C)n(C)c(=O)n(C)c1=O` (stereo unspecified), for which the cell number change is 0.122%. The half-maximal activity concentration (AC50) under setting [2] is 25.9 µM [falling, partial curve].

Consider `Cn1c2ccccc2c2cc(C(=O)NNS(=O)(=O)c3ccc(F)cc3)sc21`, for which the AC50 runs as follows: under setting [1], 2.91 µM [rising, partial curve]; under setting [2], 0.92 µM [rising, partial curve].

Regarding `O=C(NCCCNc1ccnc2cc(Cl)ccc12)c1ccccc1F`, the cell number change was determined as 25.4%. The concentration at half-maximal activity (AC50) under setting [2] is 20.6 µM [rising, single point].

As for `Cc1ccc(NC(=O)CSc2nnc(CNC(=O)c3ccco3)o2)cc1Cl`, the cell number change was found to be 4.61%. Moreover, the AC50 under setting [2] was 6.51 µM [rising, single point].

Turning to `CSc1cccc(NS(=O)(=O)c2ccccc2)c1`, the cell number change worked out at 151%. For the same compound, under setting [1], the AC50 is 18.4 µM [rising, single point]. In addition, the AC50 under setting [2] is 20.6 µM [rising, partial curve].

`CCCCP(=O)(c1ccccn1)c1ccccn1`: the cell number change was 12.6%. For the same compound, the AC50 under setting [2] was 5.17 µM [falling, single point].

Turning to `COc1ccc(/C=N/NC(=O)CN(CCc2ccccc2)S(=O)(=O)c2ccc(NC(C)=O)cc2)cc1OC`, the cell number change came to 9.41%. The AC50 under setting [2] was 36.6 µM [rising, partial curve, poor fit].

For the compound `C/C=C/c1ccc(OCCCCOc2ccc(OC)cc2)c(OC)c1`, the cell number change worked out at 19.5%. Further, the concentration at half-maximal activity (AC50) under setting [1] is 2.31 µM [falling, partial curve]. Further, the AC50 under setting [2] was 1.03 µM [falling, single point].

For the compound `COc1ccc(OC)c(-c2oc3ccccc3c(=O)c2O)c1`, the cell number change worked out at 82.9%. The half-maximal activity concentration (AC50) under setting [1] was 18.4 µM [rising, single point]. Besides, the half-maximal activity concentration (AC50) under setting [2] is 29.1 µM [rising, single point].

For the compound `C/C(=N\Nc1ccc(C(=O)O)cc1)c1ccc(Br)cc1`, the cell number change stood at 17.8%. Moreover, under setting [2], the AC50 is 1.84 µM [rising, full curve, poor fit].

As to `O=C(CSC(=S)N1CCCCC1)N1N=CCC1c1ccccc1` (stereo unspecified), the cell number change is 45.5%. For the same compound, the AC50 under setting [1] is 14.6 µM [rising, single point].

For `CNc1cc(Cl)nc(SC)n1`, the cell number change came out at 12.9%.

Consider `CCOC(=O)NC1(NC(C)C)Oc2ccccc2O1`, for which the cell number change is -25.8%. For the same compound, the half-maximal activity concentration (AC50) under setting [1] was 0.13 µM [falling, full curve, poor fit]. Moreover, under setting [2], the AC50 was 0.651 µM [falling, partial curve].

`C/C(N)=C(/C#N)C(=O)COC(=O)CCSc1ccccc1Cl`: the cell number change came out at 12.7%.

Turning to `Oc1[nH]c2ccc(Br)cc2c1N=NC(=S)Nc1ccc(F)cc1`, the cell number change was -24.3%. The AC50 under setting [1] is 0.164 µM [rising, full curve].

With `COc1ccc(CN2CCN(Cc3cn(C)nc3-c3ccccc3)CC2CCO)c(C)c1C` (stereo unspecified), the cell number change is -9.99%. In addition, the half-maximal activity concentration (AC50) under setting [1] is 0.731 µM [falling, single point]. The concentration at half-maximal activity (AC50) under setting [2] is 0.731 µM [falling, partial curve, poor fit].

Regarding `COc1cc(/C=C2\SC(=S)N(NS(=O)(=O)c3ccccc3)C2=O)ccc1O`, the cell number change was -51.7%. The AC50 under setting [1] was 0.146 µM [falling, full curve]. For the same compound, under setting [2], the concentration at half-maximal activity (AC50) is 0.0731 µM [falling, full curve].

With `CCOC(=O)N1CCC(Nc2c(N3CCN(c4cccc(C(F)(F)F)c4)CC3)c(=O)c2=O)CC1`, the cell number change is -30.8%.

On to `Cc1noc(C)c1CSCC(=O)N(C)CC(=O)Nc1ccc(F)c(F)c1F`, for which the AC50 under setting [2] was 20.6 µM [rising, partial curve].

Take `O=C(O)C1C2C=CC(C2)C1C(=O)NC1CCS(=O)(=O)C1` (stereo unspecified): the cell number change is -11.3%. In addition, the AC50 under setting [2] was 18.4 µM [rising, single point].

For `Cc1nc2ccc(S(=O)(=O)Nc3ccccc3C)cc2s1`, the cell number change was -6.91%. Moreover, the AC50 under setting [2] is 14.6 µM [falling, partial curve, poor fit].

Consider `CCCOc1ccc(-c2nc(C#N)c(NCC3CCCO3)o2)cc1` (stereo unspecified), for which the cell number change stood at 71.9%. Moreover, the half-maximal activity concentration (AC50) under setting [1] is 8.2 µM [rising, partial curve].

As for `CC(=O)C1=C(C)NC(SCC(=O)c2ccc(Cl)cc2)=C(C#N)C1c1ccco1` (stereo unspecified), the cell number change is -23.4%. Under setting [2], the half-maximal activity concentration (AC50) was 29.1 µM [falling, single point].

`COc1ccc(-c2cc(C(F)(F)F)n3ncc(C(=O)N4CCc5ccccc5C4)c3n2)cc1`: the cell number change is -13.3%. Further, under setting [2], the AC50 is 18.4 µM [falling, single point].

Take `Cc1[nH]ccc2c1[nH]c1cc(=O)ccc12`: the cell number change stood at 8.52%.

On to `Cc1nnc(SCC(=O)N2CCN(S(=O)(=O)c3ccccc3)CC2)s1`, for which the AC50 under setting [1] is 0.651 µM [falling, full curve].

As for `O=C(O)CC1c2ccccc2CCN1S(=O)(=O)c1ccc(F)cc1` (stereo unspecified), the cell number change turned out to be 23.6%.

Take `O=C1CNC(=S)N1C(CO)c1ccccc1` (stereo unspecified): the cell number change was -33.8%. Under setting [1], the half-maximal activity concentration (AC50) is 0.461 µM [falling, full curve, poor fit].

Consider `Cc1cccc(C)c1NC(=O)CS(=O)CC(=O)Nc1ccc(N2CCOCC2)cc1` (stereo unspecified), for which the cell number change stood at 25.8%. The AC50 under setting [2] is 0.164 µM [falling, single point].

As for `CCOc1cccc(CN2CCC(N3CCC(C(=O)NCC4CCCO4)CC3)CC2)c1` (stereo unspecified), the cell number change came to 7.78%.

Consider `Cc1nc(NC(=O)CCCC(=O)Nc2nc(C)c(C)s2)sc1C`, for which the cell number change was -29.2%. Under setting [2], the AC50 was 29.1 µM [falling, single point].

Regarding `COc1ccc2nc(N3CCN(C(=O)c4ccc5ncsc5c4)CC3)sc2c1`, the cell number change was -9.79%. In addition, under setting [1], the half-maximal activity concentration (AC50) is 6.51 µM [falling, single point].

With `CCOc1ccccc1N1CCN(C(=O)CNC(=O)c2ccc(OC)c(OC)c2)CC1`, the cell number change is -18.1%. Moreover, the AC50 under setting [2] was 29.1 µM [falling, single point].

As for `CCOCCN(C=O)c1cccc(OC)c1`, the cell number change was -0.668%.

For `O=C(CN1CCCCC1)Nc1ccc(S(=O)(=O)NC2CCCCC2)cc1`, the cell number change was determined as 14.9%.

In the case of `COc1ccc2nc3cc(Cl)ccc3c(Nc3cc(C(C)C)c(O)cc3C)c2c1`, the cell number change was -63.9%. The half-maximal activity concentration (AC50) under setting [1] is 23.1 µM [falling, partial curve]. Further, under setting [2], the AC50 is 20.6 µM [falling, partial curve].

Take `C#CCOCCOCCOCCNc1nc(N2CCOCC2)nc(N2CCN(C(=O)CCCCCCCCCCNC(=O)[C@H]([C@@H](C)CC)n3cc(CCCCN=C(N)N)nn3)CC2)n1`: the cell number change was 11.9%. The half-maximal activity concentration (AC50) under setting [2] is 0.00411 µM [falling, full curve, poor fit].

Turning to `COc1ccc(NC(=O)CCN=C2NS(=O)(=O)c3ccccc32)cc1S(=O)(=O)N(C)C`, the cell number change was determined as 7.57%.

As to `COc1cc(SC)ccc1C(=O)NCCCn1ccnc1`, the cell number change is 15.5%.

`O=C(O)c1cccc(NC(=O)c2ccccc2NC(=O)c2cccc([N+](=O)[O-])c2)c1`: the cell number change is -15.7%. The AC50 under setting [2] was 6.51 µM [rising, single point].

Turning to `CC(C)OP(C)(=O)CN1CCN(CP(C)(=O)OC(C)C)CC1` (stereo unspecified), the cell number change was -14.5%. Besides, under setting [2], the AC50 was 0.82 µM [falling, full curve, poor fit].

In the case of `CCCn1cc(SCC(=O)Nc2ccc3c(c2)OCO3)c2ccccc21`, the cell number change was 6.87%. For the same compound, the concentration at half-maximal activity (AC50) under setting [1] is 1.64 µM [rising, partial curve, poor fit]. In addition, under setting [2], the AC50 was 0.461 µM [rising, full curve, poor fit].

Take `S=C(NCCc1ccccc1)Nc1ccc(Br)cn1`: the cell number change is -60.4%.

Regarding `CC(C)Cc1nnc(NC(=O)CCC(=O)N2CCN(Cc3ccc(Cl)cc3)CC2)s1`, the cell number change is 10.1%. Moreover, the half-maximal activity concentration (AC50) under setting [2] is 6.51 µM [rising, single point].

As to `Cc1c(NC(=O)/C(C#N)=C/c2cccs2)c(=O)n(-c2ccccc2)n1C`, the cell number change worked out at 11.9%.

Regarding `Nc1n[nH]c(-c2ccc(F)cc2)n1`, the cell number change is 11.2%. Moreover, under setting [2], the AC50 is 2.59 µM [rising, partial curve].

On to `CCCC(=O)Nc1nnc(SCC(=O)NCc2cccs2)s1`, for which the cell number change was 7.9%. Besides, the AC50 under setting [2] is 1.84 µM [rising, partial curve].

As to `Cc1ccc(NC(=O)CSc2nn3c(=O)c(C)nnc3s2)cc1Cl`, the cell number change was -6.54%. In addition, the AC50 under setting [2] was 29.1 µM [falling, single point].

In the case of `COc1cccc(NC(=O)CSc2nc3ccccc3c3nc4ccccc4n23)c1`, the cell number change worked out at 9.7%. The AC50 under setting [2] was 0.461 µM [rising, full curve].

For the compound `Cc1cc(C)c2c(N)c(C(=O)NN3CC(=O)N(c4ccccc4F)CC3=O)sc2n1`, the cell number change stood at 23.9%. Also, under setting [1], the AC50 was 3.26 µM [rising, single point]. In addition, the AC50 under setting [2] is 18.4 µM [rising, single point].

As to `CCCOc1c(Br)cc(C(N)=O)cc1OCC`, the AC50 is 0.92 µM [falling, partial curve, poor fit] under setting [1] and 0.326 µM [falling, full curve, poor fit] under setting [2].

For the compound `O=C1CC2(CCN(S(=O)(=O)c3ccccc3)CC2)Oc2ccccc21`, the cell number change was 9.34%. For the same compound, the AC50 under setting [2] was 0.00461 µM [falling, full curve, poor fit].

In the case of `Cn1c(CCN2CCN(c3ccccn3)CC2)nc2cc(NS(=O)(=O)c3ccc(Cl)cc3)ccc21`, the cell number change is -29%. In addition, under setting [1], the half-maximal activity concentration (AC50) is 2.31 µM [falling, full curve, poor fit]. For the same compound, the AC50 under setting [2] was 0.731 µM [falling, partial curve, poor fit].

Regarding `CC(C)Cc1nnc(NC(=O)CCC(=O)Nc2ccc(Cl)cc2)s1`, the cell number change was -1.53%. For the same compound, the AC50 under setting [2] is 0.82 µM [rising, single point].
